Test results taken from patent US20080166352A1.
Results are given in words; binding and its absence hold for the method and conditions named. Some entries that bind do so weakly or less than the wild type. Tags and fused reporters may be left off the sequences shown.

What was measured:
[1] = biological target: T1, human B7RP1 extracellular domain fused to chicken avidin (human; chicken) (UniProt O75144); experiment: avidin fusion on biotin-coated beads, flow cytometry (FIG. 9A legend)
T1 sequence: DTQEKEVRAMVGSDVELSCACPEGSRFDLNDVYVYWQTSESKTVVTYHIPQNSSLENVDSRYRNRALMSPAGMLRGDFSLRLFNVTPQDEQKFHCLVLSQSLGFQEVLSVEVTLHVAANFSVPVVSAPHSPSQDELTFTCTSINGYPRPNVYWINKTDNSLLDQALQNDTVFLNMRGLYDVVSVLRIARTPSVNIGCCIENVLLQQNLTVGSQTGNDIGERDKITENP

[2] = biological target: T2, human B7RP-1 Ig1 (IgV-like) domain fused to chicken avidin (human; chicken) (UniProt O75144); experiment: avidin fusion on biotin-coated beads, labeled reagent, flow cytometry
T2 sequence: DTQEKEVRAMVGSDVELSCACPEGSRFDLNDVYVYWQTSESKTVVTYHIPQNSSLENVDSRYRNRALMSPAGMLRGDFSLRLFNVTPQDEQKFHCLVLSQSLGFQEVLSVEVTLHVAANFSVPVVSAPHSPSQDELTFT

[3] = biological target: T1, human B7RP1 extracellular domain fused to chicken avidin (human; chicken); experiment: as above

binding [1]: binds
binding [2]: binds
binding [3]: binds
B1: ICOS-Fc fusion protein (Fc fusion, UniProt Q9Y6W8 21-140, looked up, not shown: a dimerising Fc or GST)
chain: EINGSANYEMFIFHNGGVQILCKYPDIVQQFKMQLLKGGQILCDLTKTKGSGNTVSIKSLKFCHSQLSNNSVSFFLYNLDHSHANYYFCNLSIFDPPPFKVTLTGGYLHIYESQLCCQLK
